Source: ChEMBL document CHEMBL3988442, “University of Dundee, Small-Polar-MMV Screening Library” (2021).

Sequences of proteins named here, by UniProt entry; tags and fusion partners are left off. Residues count along the entry.
UniProt I6X8D2, whole entry: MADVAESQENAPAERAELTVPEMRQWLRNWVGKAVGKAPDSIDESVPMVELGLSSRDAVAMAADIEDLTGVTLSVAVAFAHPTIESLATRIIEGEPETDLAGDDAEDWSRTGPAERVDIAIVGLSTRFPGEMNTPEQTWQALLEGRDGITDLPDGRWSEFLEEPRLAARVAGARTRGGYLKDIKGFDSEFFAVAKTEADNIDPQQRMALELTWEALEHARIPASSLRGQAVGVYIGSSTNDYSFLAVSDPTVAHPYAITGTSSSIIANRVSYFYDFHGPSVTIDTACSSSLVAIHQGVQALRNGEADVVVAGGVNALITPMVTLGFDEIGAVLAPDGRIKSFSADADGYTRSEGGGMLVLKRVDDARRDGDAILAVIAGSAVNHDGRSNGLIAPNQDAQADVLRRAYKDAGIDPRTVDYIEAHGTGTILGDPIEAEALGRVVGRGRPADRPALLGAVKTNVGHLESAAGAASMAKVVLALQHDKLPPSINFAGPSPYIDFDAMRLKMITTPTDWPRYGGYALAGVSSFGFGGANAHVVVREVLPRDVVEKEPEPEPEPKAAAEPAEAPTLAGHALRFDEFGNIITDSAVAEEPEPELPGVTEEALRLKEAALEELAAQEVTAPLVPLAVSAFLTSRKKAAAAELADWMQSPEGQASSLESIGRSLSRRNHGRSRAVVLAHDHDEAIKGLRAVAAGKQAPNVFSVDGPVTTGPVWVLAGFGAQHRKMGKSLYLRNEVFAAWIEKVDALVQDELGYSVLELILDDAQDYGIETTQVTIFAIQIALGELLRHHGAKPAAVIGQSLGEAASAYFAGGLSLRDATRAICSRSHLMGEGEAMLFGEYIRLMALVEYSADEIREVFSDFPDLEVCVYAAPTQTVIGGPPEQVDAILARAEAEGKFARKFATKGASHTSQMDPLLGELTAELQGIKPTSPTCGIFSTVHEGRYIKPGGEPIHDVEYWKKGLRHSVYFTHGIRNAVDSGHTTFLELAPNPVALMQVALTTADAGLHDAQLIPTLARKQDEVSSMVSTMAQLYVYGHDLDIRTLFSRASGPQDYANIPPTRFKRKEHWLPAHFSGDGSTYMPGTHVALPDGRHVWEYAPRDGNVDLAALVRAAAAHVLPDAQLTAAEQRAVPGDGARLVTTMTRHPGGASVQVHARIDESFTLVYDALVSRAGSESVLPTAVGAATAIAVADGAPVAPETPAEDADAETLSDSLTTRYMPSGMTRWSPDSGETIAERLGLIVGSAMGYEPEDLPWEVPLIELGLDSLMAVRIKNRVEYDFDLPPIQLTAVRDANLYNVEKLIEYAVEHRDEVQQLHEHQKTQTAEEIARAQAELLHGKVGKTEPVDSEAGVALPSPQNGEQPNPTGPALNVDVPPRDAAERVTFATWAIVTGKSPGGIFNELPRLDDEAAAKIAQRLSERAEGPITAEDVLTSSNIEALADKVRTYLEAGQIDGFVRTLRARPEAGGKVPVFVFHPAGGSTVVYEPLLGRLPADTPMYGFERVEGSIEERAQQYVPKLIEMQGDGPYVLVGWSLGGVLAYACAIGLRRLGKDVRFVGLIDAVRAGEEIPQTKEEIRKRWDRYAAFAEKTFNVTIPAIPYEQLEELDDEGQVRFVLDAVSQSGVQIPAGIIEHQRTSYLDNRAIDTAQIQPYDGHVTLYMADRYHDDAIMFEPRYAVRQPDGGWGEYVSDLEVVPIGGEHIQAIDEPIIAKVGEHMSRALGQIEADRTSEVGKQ
UniProt A4I591, 1-473: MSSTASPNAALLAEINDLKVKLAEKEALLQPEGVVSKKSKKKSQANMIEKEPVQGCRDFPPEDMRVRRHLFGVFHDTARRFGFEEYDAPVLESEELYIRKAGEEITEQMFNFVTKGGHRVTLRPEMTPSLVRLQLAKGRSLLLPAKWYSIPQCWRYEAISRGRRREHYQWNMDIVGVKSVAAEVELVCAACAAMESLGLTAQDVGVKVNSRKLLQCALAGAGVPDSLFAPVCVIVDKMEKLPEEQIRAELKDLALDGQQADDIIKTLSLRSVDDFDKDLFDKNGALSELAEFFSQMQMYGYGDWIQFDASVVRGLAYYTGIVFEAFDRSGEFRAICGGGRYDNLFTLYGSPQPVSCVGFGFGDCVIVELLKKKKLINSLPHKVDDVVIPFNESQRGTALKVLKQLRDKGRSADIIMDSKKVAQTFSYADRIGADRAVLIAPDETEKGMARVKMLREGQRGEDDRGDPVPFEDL

Pks13 thioesterase: 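Polyketide synthase Pks13, Mycobacterium tuberculosis (UniProt I6X8D2). Enzyme assay of the thioesterase domain of polyketide synthase 13; the read-out is not stated. Concentration: 30 µM. The record gives no direction; the compounds picked for IC50 retests had high values, so higher reads as stronger inhibition. Size under these conditions: about 67,000 compounds, about 300 of them at 50% or above in at least one test.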
LiHisRS: 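Histidine-tRNA ligase, Leishmania infantum (UniProt A4I591). Enzyme assay of histidyl-tRNA synthetase; the read-out is not stated. Tested at 30 µM. The record gives no direction; compounds that gave an IC50 in retests scored well above the rest, so higher reads as stronger inhibition. The assay is labelled LdHisRS but filed under L. infantum. About 69,000 compounds were tested under these conditions; 0.6% (about 410) showed 50% or more at least once.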

Values are the deposited “Percent Effect”, in %. The record does not define 0% and 100%; most values in the screen are far below 50% and negative numbers occur (in some assays of this library far below -100). The compounds are a random part of those screened. A dash means the value is not listed here; it may have been measured.

| # | Compound | Pks13 thioesterase | LiHisRS |
|---|---|---|---|
| 1 | `COc1ncnc2c1CCN(c1cccc(F)c1)CC2` | -24.14% | -26% |
| 2 | `CCc1[nH]n(C)c(=N)c1-c1ccc2c(c1)OCO2` | -17.29% | 19.15% |
| 3 | `CCCc1nc(N2CCC(CCO)CC2)c2cnn(C)c2n1` | -4.291% | 15.05% |
| 4 | `COc1cc2c(cc1-c1nc3c(cnn3C(C)C3CC3)[nH]1)OCO2` (stereo unspecified) | -38% | 6.667% |
| 5 | `O=C(C1CCCCC1)N1CCC2(CC1)CNCc1ccccc12` | -29.71% | 20.69% |
| 6 | `CCn1c(-c2ccccc2)nn(CC(=O)NCCc2ccc(C)o2)c1=O` | -0.5491% | 15.04% |
| 7 | `O=S(=O)(c1ccccc1Br)N1CCC2(CC1)OCCS2` | 3.082% | 12.9% |
| 8 | `CCOC(=O)NCCC(=O)NCc1ccc(Oc2ccc(F)cc2)nc1` | -19.19% | 22.58% |
| 9 | `CC1NC(=O)COC12CCN(C(=O)Cc1ccsc1)CC2` (stereo unspecified) | -32.5% | 15.52% |
| 10 | `CC(C)(CO)Nc1c(NCc2ccccc2)c(=O)c1=O` | -5.1% | 15.79% |
| 11 | `c1cnc(-c2cnc(N3CCCCC3)nc2C2CCCO2)cn1` (stereo unspecified) | 7.443% | 16% |
| 12 | `O=C(c1ccc(O)nc1)N1CCc2ccc(O)cc2C1` | 1.663% | 19.78% |
| 13 | `Cc1ccc(-c2noc(C(C)NS(C)(=O)=O)n2)cc1` (stereo unspecified) | -26.86% | -1.37% |
| 14 | `O=C(Nc1cccs1)NC(CCCO)c1ccccc1` (stereo unspecified) | -1.465% | 12.2% |
| 15 | `Cc1cccc(CN2CCC3(CCN(c4cccnc4)C3=O)C2)n1` (stereo unspecified) | -17.99% | 40% |
| 16 | `CN(C)c1cnn(CC(=O)N2CCN(c3ccccc3)CC2)c(=O)c1` | -11.42% | 6.612% |
| 17 | `Cc1cnc(N2CCC3(CC2)CC(N(C)Cc2ccncc2)C3)nc1` | -11.95% | 2.632% |
| 18 | `Cc1nc(O)c2nnn(C[C@H]3CCCN3C(=O)CCC3CCCC3)c2n1` | -35.59% | 0% |
| 19 | `CN(Cc1cccs1)C(=O)c1ccc(N2CCOCC2)c(F)c1` | -24.97% | 16% |
| 20 | `COCCN1C[C@@H](C)[C@@]2(COCCN(C(=O)c3ccoc3)C2)C1` | 17.07% | 5.556% |
| 21 | `CC(=O)N1CCN2C(=O)N(Cc3ccc(F)cc3)C[C@H]2C1` | -33.14% | 22.22% |
| 22 | `CCN(CC)C(=O)N1CCN(CCc2ccncc2)CC1` | -6.903% | 0% |
| 23 | `O=C(c1cccnc1)N1CCC2(CNS(=O)(=O)c3cnccc3O2)C1` (stereo unspecified) | - | 26.21% |
| 24 | `O=C(CCNc1ncccn1)NCCc1ccc(Cl)s1` | -12.99% | 11.4% |
| 25 | `OCCN1CCC(c2csc(Nc3cnccn3)n2)CC1` | -8.783% | 9.396% |
| 26 | `Cc1ccc(N2CCCC(NCc3ccc(Cl)o3)C2)nn1` (stereo unspecified) | -14.58% | 13.68% |
| 27 | `CC(C)(C)c1cc(NC(=O)CN2CCCC2Cn2cncn2)on1` (stereo unspecified) | -16.89% | 34.29% |
| 28 | `CN1CCC(N(C)C[C@H]2CC[C@@H](Cc3ccc4occc4c3)O2)CC1` | -21.65% | 10.45% |
| 29 | `O=C(O)COc1ccc(CN2CCCC(Cc3cccnc3)C2)cc1` (stereo unspecified) | 8.426% | 12.86% |
| 30 | `CC(=O)NC1CCN(c2c(C#N)cnc3c(C)cc(F)cc23)CC1` | 0.5887% | 11.71% |
| 31 | `CNC(=O)N1CC[C@@H]2CN(Cc3ccccc3)S(=O)(=O)[C@@H]2CC1` | 4.988% | -2.727% |
| 32 | `Cc1csc(CN2CC[C@H]3C(=O)N(c4cccnc4)CCO[C@H]3C2)n1` | -10.35% | 23.08% |
| 33 | `Cc1ccnc(NCc2ccccc2N2CCOCC2)n1` | -10.47% | 15.66% |
| 34 | `Cn1ccnc1CN1CCCC1c1noc(C2CC2)n1` (stereo unspecified) | -6.07% | 9.459% |
| 35 | `O=S(=O)(Cc1ccccc1F)NC(CO)c1ccco1` (stereo unspecified) | 4.855% | 7.895% |
| 36 | `O=C(c1cscn1)N1CCC2(CCN(Cc3nccs3)CC2)CC1` | -4.1% | 23% |
| 37 | `COCCC(=O)N1CCC2(COCc3c(C)nc(NCC4CC4)nc32)C1` (stereo unspecified) | -25.28% | 12.41% |
| 38 | `Cc1nc(CNc2ccccc2CCC(F)(F)F)cs1` | -14.23% | -48.31% |
| 39 | `Cc1cc(C(=O)Nc2cnn(CC(F)(F)F)c2)nc(N2CCOCC2)n1` | -7.845% | 10.34% |
| 40 | `COCCN(C)CC1CCCN1S(=O)(=O)c1cc(C)oc1C` (stereo unspecified) | -20.06% | 4.762% |
| 41 | `CN(CC1CCCCO1)c1nncc(-c2cccc(F)c2)n1` (stereo unspecified) | -21.25% | 5.714% |
| 42 | `COc1ncccc1CN1CC[C@H]2O[C@@H](c3nnc(C)o3)CC[C@H]21` | -12.59% | 8.621% |
| 43 | `Cc1nn(C)c2ncc(CNCCc3ccccn3)cc12` | -6.441% | -3.371% |
| 44 | `CCCN1CCC2(C1)c1ccccc1S(=O)(=O)N2Cc1ccc(F)cc1` (stereo unspecified) | -10.37% | -8% |
| 45 | `CN1CCN(C(=O)c2cccs2)Cc2ccccc21` | -24.04% | 13.16% |
| 46 | `CCN(Cc1ccc(S(C)(=O)=O)cc1)Cc1nc(COC)no1` | -30.4% | 16.46% |
| 47 | `O=S(=O)(c1ccc(Cl)s1)N1CCCC(c2ncc[nH]2)C1` (stereo unspecified) | -37.81% | 6.667% |
| 48 | `Cc1nn(C)c(N(C)C)c1CNCC(O)COc1cccc(F)c1` (stereo unspecified) | -4.382% | 1.176% |
| 49 | `CCOCCN1CCN(Cc2nnc(C3CC3)o2)CC1CC` (stereo unspecified) | -23.51% | 7.692% |
| 50 | `CC(=O)N1CCN(C(=O)Nc2ccccc2)CC2(CC(=O)N(C)C2)C1` (stereo unspecified) | -41.58% | 11.65% |
| 51 | `CNc1cc(C)nc(C2CN(Cc3ccc(Cl)cn3)CCO2)c1` (stereo unspecified) | -7.057% | 10% |
| 52 | `CCn1cnnc1CCNc1nc(C)cc(C)c1C#N` | 36.54% | 15.29% |
| 53 | `Cc1oncc1C(=O)N1CCC2(CC1)CC(N1CCOCC1)C2` | -19.5% | 19.27% |
| 54 | `Cc1ccc(N2CCC3(CCN(C(N)=O)CC3)CC2)nn1` | -12.41% | 7.843% |
| 55 | `CN(CCc1ccccn1)C(=O)C(c1cccnc1)N1CCOCC1` (stereo unspecified) | -34.46% | 18.18% |
| 56 | `CC(C)c1cc(COCCC(=O)O)no1` | 16.48% | 14.43% |
| 57 | `COCC(NC(=O)c1cc(NC(C)=O)ccc1Cl)c1ccnn1C` (stereo unspecified) | -23.64% | 12.4% |
| 58 | `COc1ccc(OC)c(C(=O)N(C)Cc2nnc3ccccn23)c1` | -21.61% | 9.735% |